Laboratory results taken from doi:10.1101/2023.07.24.550340.
Substitutions are numbered along the chain they refer to. Like-named read-outs stand apart in the source and are kept apart here. These are yes or no findings as the source states them, for the method shown. In cells and extracts the contact can be indirect. Some binding calls cover weakened binding; strength is not graded here. For some assays here: Tags and fused reporters may be left off the sequences shown.

By UniProt entry, the sequences of proteins in these tests, tags left out. Where a name states a change or a piece, a line headed by the entry shows the natural chain unless it says otherwise.
UniProt P19793, whole entry: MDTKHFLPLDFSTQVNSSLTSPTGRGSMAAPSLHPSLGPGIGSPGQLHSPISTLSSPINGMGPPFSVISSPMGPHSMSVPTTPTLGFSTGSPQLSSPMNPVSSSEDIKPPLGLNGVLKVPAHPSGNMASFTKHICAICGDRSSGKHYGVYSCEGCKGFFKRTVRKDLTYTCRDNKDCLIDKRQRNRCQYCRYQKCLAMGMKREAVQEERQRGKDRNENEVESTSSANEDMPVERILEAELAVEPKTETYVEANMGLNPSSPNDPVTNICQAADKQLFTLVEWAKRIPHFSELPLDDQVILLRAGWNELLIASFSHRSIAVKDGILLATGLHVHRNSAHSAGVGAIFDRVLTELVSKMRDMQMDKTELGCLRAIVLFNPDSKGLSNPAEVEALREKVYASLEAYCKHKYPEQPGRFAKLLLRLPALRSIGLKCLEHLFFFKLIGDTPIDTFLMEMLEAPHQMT

What was measured:
FLAG-NR2F1 G368D (human) = target: T1, FLAG-NR2F1 G368D (human) (UniProt P10589); test: co-IP
T1 sequence: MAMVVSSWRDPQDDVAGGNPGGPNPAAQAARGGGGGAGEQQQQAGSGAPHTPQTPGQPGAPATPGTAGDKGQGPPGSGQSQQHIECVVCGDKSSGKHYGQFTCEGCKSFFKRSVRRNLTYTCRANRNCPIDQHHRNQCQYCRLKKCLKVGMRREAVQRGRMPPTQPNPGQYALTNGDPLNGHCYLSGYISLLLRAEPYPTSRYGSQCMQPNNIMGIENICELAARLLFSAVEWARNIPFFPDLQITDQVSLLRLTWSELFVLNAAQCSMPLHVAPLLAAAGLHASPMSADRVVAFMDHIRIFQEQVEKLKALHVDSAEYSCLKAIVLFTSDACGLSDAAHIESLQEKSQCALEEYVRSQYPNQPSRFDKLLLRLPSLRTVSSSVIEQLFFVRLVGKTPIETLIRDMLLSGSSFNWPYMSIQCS

[1] = target: FLAG-Q244AzF-NR2F1 with the pathogenic mutation L372P (human) (UniProt P10589); test: cross-linking
[2] = target: T2, FLAG-Q244AzF-NR2F1 (human) (UniProt P10589); test: cross-linking
T2 sequence (chain, p-azidophenylalanine (AzF) at position 244): T1 sequence with Q244F, D368G

[3] = target: FLAG-Q244AzF-NR2F1 with the pathogenic mutation L252P (human) (UniProt P10589); test: cross-linking
[4] = target: FLAG-Q244AzF-NR2F1 with the pathogenic mutation G395A (human) (UniProt P10589); test: cross-linking
[5] = target: FLAG-Q244AzF-NR2F1 with the pathogenic mutation E318D (human) (UniProt P10589); test: cross-linking
[6] = target: T2, FLAG-Q244AzF-NR2F1 (human); test: cross-linking; remark: listed apart in the source
[7] = target: T3, FLAG-AzF-NR2F1 L372AzF (human) (UniProt P10589); test: cross-linking
T3 sequence (chain, p-azidophenylalanine (AzF) at position 372): T1 sequence with D368G, L372F

Measured: binding

Myc-tagged RXRα (Myc-RXRα) (from UniProt P19793 1-462)
no binding: FLAG-NR2F1 G368D (human)
binds: all other assays above
